Assay results from PMC8748537.
These are yes or no findings as the source states them, for the method shown. In cells and extracts the contact can be indirect. Some entries that bind do so weakly or less than the wild type. For part of these data: Tags and fused reporters may be left off the sequences shown.

Chains of the proteins cited; added tags and fusions are not shown.
UniProt Q86WV6: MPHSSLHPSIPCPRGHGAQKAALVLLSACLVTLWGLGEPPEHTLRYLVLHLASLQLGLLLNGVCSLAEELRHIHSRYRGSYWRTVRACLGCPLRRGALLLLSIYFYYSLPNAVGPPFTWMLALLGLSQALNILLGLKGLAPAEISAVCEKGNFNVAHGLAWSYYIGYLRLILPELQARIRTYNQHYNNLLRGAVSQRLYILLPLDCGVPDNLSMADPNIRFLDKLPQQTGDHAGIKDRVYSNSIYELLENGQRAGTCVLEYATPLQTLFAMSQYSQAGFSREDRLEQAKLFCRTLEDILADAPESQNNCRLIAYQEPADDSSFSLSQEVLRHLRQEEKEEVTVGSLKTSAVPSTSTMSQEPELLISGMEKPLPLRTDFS

Tests used:
[1] = molecular target: T1, HA-FLAG-tagged TMEM120A (human) (UniProt Q9BXJ8); test: co-IP; FLAG-tag based immunoprecipitation (anti-FLAG M2 magnetic beads, overnight 4 °C, FLAG peptide elution) from U87MG cells stably expressing HA-FLAG-TMEM120A, infected with ZIKV for 48 h; blot with STING antibody; lysis buffer 20 mM Tris-HCl pH 7.5, 150 mM NaCl, 2 mM EDTA, 1% Nonidet P-40
T1 sequence: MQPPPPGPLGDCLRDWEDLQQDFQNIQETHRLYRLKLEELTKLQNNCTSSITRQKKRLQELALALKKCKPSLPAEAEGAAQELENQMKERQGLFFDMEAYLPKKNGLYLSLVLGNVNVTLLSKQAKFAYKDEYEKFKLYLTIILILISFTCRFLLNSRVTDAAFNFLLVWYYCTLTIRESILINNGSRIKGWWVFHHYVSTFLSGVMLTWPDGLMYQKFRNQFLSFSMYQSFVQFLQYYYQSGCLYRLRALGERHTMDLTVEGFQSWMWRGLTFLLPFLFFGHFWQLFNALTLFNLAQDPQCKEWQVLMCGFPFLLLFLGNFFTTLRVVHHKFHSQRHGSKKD

ERGIC53 = molecular target: T2, ERGIC53 (UniProt P49257); test: co-IP; Supplementary Fig. 11: interaction of STING and ERGIC53, weakened by TMEM120A knock-down; method, cells and constructs not shown
T2 sequence: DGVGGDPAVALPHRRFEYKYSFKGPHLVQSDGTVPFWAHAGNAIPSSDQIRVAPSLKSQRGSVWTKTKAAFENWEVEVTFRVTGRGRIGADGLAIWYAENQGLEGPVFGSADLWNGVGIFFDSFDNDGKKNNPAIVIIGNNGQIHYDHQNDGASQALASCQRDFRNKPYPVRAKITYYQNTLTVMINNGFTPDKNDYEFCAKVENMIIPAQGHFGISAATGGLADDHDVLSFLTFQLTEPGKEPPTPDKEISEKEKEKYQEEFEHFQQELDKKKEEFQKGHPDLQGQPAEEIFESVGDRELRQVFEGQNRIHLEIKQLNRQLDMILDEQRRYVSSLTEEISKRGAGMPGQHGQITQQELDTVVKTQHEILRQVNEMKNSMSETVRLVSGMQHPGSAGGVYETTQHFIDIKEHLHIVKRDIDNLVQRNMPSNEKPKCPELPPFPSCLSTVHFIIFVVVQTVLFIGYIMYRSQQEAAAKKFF

[2] = molecular target: N-terminal HA-FLAG tagged STING (UniProt Q86WV6); test: co-IP; FLAG-tag based immunoprecipitation (anti-FLAG M2 magnetic beads, overnight 4 °C, FLAG peptide elution) from HEK293T cells transiently transfected for 48 h with HA-FLAG-STING and TMEM120A-V5; blot with TMEM120A antibodies; lysis buffer 20 mM Tris-HCl pH 7.5, 150 mM NaCl, 2 mM EDTA, 1% Nonidet P-40
[3] = molecular target: STING (as in the experiments of Supplementary Figs. 7, 8, 11 and 12; construct not shown) (UniProt Q86WV6); test: co-IP; Supplementary Fig. 7: with ZIKV or HSV-1 infection (interaction enhanced); cells and constructs not shown
[4] = molecular target: STING (as in the experiments of Supplementary Figs. 7, 8, 11 and 12; construct not shown) (UniProt Q86WV6); test: co-IP; Supplementary Fig. 12b, c: association of TMEM120A with STING with SEC23A knock-down, and of TMEM120A with COPII components; cells and constructs not shown
[5] = molecular target: STING (as in the experiments of Supplementary Figs. 7, 8, 11 and 12; construct not shown) (UniProt Q86WV6); test: co-IP; Supplementary Fig. 8: IP of TMEM120A truncations NTD and CTD with STING; cells, tags and bait not shown

## endogenous STING (from UniProt Q86WV6 1-379)
[1]
  binding: binds

## STING (as in the experiments of Supplementary Figs. 7, 8, 11 and 12; construct not shown) (from UniProt Q86WV6 1-379)
ERGIC53
  binding: binds

B1: C-terminal V5-TMEM120A (protein, UniProt Q9BXJ8 1-343)
chain: T1 sequence
[2]
  binding: binds

B2: TMEM120A (as in the experiments of Supplementary Figs. 7 and 12; construct not shown) (protein, UniProt Q9BXJ8 1-343)
chain: T1 sequence
[3]
  binding: binds
[4]
  binding: binds

B3: TMEM120A CTD (C-terminal domain, aa 136-343) (domain or fragment, UniProt Q9BXJ8 136-343)
chain: FKLYLTIILILISFTCRFLLNSRVTDAAFNFLLVWYYCTLTIRESILINNGSRIKGWWVFHHYVSTFLSGVMLTWPDGLMYQKFRNQFLSFSMYQSFVQFLQYYYQSGCLYRLRALGERHTMDLTVEGFQSWMWRGLTFLLPFLFFGHFWQLFNALTLFNLAQDPQCKEWQVLMCGFPFLLLFLGNFFTTLRVVHHKFHSQRHGSKKD
[5]
  binding: binds
